Where two headings read alike, the source gives them in different places. Results are given in words; binding and its absence hold for the method and conditions named. In cells and extracts the contact can be indirect. Some entries that bind do so weakly or less than the wild type. For some assays here: Sequences can lack the tags named with a protein.
Columns and labels:
[1] = molecular target: T1, RopGEF14-4xMyc (Arabidopsis (Col-0)) (UniProt Q56WM6); assay: co-IP
T1 sequence: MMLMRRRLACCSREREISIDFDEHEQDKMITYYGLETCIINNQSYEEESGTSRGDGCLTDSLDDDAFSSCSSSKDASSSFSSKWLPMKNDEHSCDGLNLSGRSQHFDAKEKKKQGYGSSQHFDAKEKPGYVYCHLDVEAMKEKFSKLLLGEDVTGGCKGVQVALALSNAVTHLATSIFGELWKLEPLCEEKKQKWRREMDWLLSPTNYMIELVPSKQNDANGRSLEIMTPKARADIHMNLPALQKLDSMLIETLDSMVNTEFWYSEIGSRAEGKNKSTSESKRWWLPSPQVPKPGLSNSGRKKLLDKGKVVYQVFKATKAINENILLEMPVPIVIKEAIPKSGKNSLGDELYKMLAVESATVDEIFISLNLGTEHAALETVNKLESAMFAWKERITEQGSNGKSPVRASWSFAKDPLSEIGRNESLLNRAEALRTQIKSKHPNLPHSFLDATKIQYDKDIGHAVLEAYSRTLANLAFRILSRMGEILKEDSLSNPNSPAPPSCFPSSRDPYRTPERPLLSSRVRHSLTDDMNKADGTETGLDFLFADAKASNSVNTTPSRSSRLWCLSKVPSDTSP

Sequences of proteins named here, by UniProt entry; tags and fusion partners are left off.
UniProt Q38912: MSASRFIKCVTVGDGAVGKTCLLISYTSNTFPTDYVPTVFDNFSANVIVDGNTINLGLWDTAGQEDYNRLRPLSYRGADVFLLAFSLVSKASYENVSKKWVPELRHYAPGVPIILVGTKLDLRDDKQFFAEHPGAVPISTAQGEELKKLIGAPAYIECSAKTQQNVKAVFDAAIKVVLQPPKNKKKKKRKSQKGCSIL

[2] = molecular target: FER-GFP (Arabidopsis (Col-0)) (UniProt Q9SCZ4); assay: co-IP
MBP-GEF14 (Arabidopsis) [3] = molecular target: T2, MBP-GEF14 (Arabidopsis) (UniProt Q56WM6); assay: pull-down
T2 sequence: T1 sequence

[4] = molecular target: FERONIA (FER), endogenous (Arabidopsis (endogenous in seedlings)) (UniProt Q9SCZ4); assay: co-IP
MBP-GEF14 (Arabidopsis) [5] = molecular target: T2, MBP-GEF14 (Arabidopsis); assay: pull-down; remark: listed apart in the source

“ROP6, endogenous (from UniProt Q38912 1-198)” was tested, and the binding [1] was “binds”.

With ROP6-Flag (from UniProt Q38912 1-198) the binding [2] was “binds” and the binding (MBP-GEF14 (Arabidopsis) [3]) was “binds”.

B1: GFP-RopGEF14 (protein, UniProt Q56WM6 1-576)
chain: T1 sequence
For B1, the binding [4] was “binds”.

B2: FER-ECD-HA (domain or fragment, UniProt Q9SCZ4 28-447)
chain: ADYSPTEKILLNCGGGASNLTDTDNRIWISDVKSKFLSSSSEDSKTSPALTQDPSVPEVPYMTARVFRSPFTYTFPVASGRKFVRLYFYPNSYDGLNATNSLFSVSFGPYTLLKNFSASQTAEALTYAFIIKEFVVNVEGGTLNMTFTPESAPSNAYAFVNGIEVTSMPDMYSSTDGTLTMVGSSGSVTIDNSTALENVYRLNVGGNDISPSADTGLYRSWYDDQPYIFGAGLGIPETADPNMTIKYPTGTPTYVAPVDVYSTARSMGPTAQINLNYNLTWIFSIDSGFTYLVRLHFCEVSSNITKINQRVFTIYLNNQTAEPEADVIAWTSSNGVPFHKDYVVNPPEGNGQQDLWLALHPNPVNKPEYYDSLLNGVEIFKMNTSDGNLAGTNPIPGPQVTADPSKVLRPTTRKSKSNTA
In the case of B2, the binding (MBP-GEF14 (Arabidopsis) [5]) is reported as “no binding”.

From article doi:10.1101/269647
